The values below come from publication PMC6056535.

This experiment deals with Flag-abLIM1 (full-length human abLIM1, 743 amino acids) (human). Briefly: affinity purification with mass spectrometry; lysates of HEK293T cells expressing Flag-abLIM1 or Flag-luciferase mixed with P0 mouse brain lysates, co-IP, shotgun mass spectrometry.

Results are given in words; binding and its absence hold for the method and conditions named. In cells and extracts the contact can be indirect. These calls come from enrichment with a bait or labelling near it, and not all partners need be listed.

B1: α adducin (mouse brain lysate) (protein, UniProt Q9QYC0 1-735)
chain: MNGDTRAAVVTSPPPTTAPHKERYFDRVDENNPEYLRERNMAPDLRQDFNMMEQKKRVSMILQSPAFCEELESMIQEQFKKGKNPTGLLALQQIADFMTASVPNVYPAAPQGGMAALNMSLGMVTPVNDLRGSDSIAYDKGEKLLRCKLAAFYRLADLFGWSQLIYNHITTRVNSEQEHFLIVPFGLLYSEVTASSLVKVNLQGDIVDRGSTNLGVNQAGFTLHSAVYAARPDAKCIVHIHTPAGAAVSAMKCGLLPISPEALSLGDVAYHDYHGILVDEEEKILIQKNLGPKSKVLILRNHGLVSVGESVEEAFYYIHNLVVACEIQVRTLASAGGPDNLVLLDPGKYKAKSRSPGTPAGEGSGSPPKWQIGEQEFEALMRMLDNLGYRTGYPYRYPALRERSKKYSDVEVPASVTGHSFASDGDSGTCSPLRHSFQKQQREKTRWLHSGRGDDASEEGQNGSSPKSKTKWTKEDGHRTSTSAVPNLFVPLNTNPKEVQEMRNKIREQNLQDIKTAGPQSQVLCGVMMDRSLVQGELVTASKAIIEKEYQPHVIVSTTGPNPFNTLTDRELEEYRREVERKQKGSEENLDETREQKEKSPPDQSAVPNTPPSTPVKLEEDLPQEPTSRDDSDATTFKPTPPDLSPDEPSEALAFPAVEEEAHASPDPTQPPAEADPEPASAPTPGAEEVASPATEEGSPMDPGSDGSPGKSPSKKKKKFRTPSFLKKSKKKSDS
As to B1, the binding result is reported as “binds”.
